Experimental data taken from PMC9338993.
Results are given in words; binding and its absence hold for the method and conditions named. Binding seen in cells or lysates may run through a third protein. Some results given as binding are weak or reduced against the parent protein; the word gives no strength. Sequences can lack the tags named with a protein.

Protein sequences, listed by entry. Tags and fused reporters are not part of them. Lines headed by an entry give the natural chain unless they say otherwise; changes in a name come on top.
UniProt P17936: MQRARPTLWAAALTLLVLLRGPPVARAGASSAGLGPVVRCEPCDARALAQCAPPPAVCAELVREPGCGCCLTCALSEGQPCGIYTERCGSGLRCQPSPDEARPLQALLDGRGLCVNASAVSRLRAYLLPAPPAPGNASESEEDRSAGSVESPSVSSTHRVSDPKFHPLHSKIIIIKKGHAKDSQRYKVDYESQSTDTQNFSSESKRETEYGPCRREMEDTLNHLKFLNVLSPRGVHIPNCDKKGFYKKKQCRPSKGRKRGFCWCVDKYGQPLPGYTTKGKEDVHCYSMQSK

Experiments:
[1] = biological target: T1, human ALS-His (human) (UniProt P35858); test: pull-down; three proteins co-expressed in Expi293-F (ALS-His : IGFBP3-Strep, CLD3-CBP3-Strep or hybrid-BP-Strep : IGF1 = 1:1:2); culture supernatant on Ni-NTA or Strep-Tactin resin; 20 mM Tris-HCl pH 8.0, 200 mM NaCl; SDS-PAGE
T1 sequence: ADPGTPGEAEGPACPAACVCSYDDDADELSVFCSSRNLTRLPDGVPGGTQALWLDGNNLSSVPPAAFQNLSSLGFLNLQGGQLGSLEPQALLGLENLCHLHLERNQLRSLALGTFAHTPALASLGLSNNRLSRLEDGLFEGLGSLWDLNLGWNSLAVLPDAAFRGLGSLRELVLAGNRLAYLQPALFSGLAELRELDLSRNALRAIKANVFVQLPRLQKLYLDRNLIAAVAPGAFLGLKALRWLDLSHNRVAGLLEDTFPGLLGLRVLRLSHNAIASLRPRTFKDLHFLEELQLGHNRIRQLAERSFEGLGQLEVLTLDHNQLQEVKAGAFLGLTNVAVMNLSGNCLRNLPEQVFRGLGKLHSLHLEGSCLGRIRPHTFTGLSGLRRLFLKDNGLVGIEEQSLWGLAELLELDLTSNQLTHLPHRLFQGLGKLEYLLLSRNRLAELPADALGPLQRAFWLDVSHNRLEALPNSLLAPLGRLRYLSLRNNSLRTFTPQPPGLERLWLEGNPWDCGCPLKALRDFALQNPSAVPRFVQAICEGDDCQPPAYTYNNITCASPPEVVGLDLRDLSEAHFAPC

[2] = biological target: T1, human ALS-His (human); test: pull-down; two proteins co-expressed 1:1 in Expi293-F without the third (ALS-His with IGFBP3-Strep, IGF1-Strep, CLD3-CBP3-Strep or hybrid-BP-Strep; CLD3-CBP3-Strep with IGF1-His); culture supernatant on Ni-NTA or Strep-Tactin resin; 20 mM Tris-HCl pH 8.0, 200 mM NaCl; SDS-PAGE

Row | binding [1] | binding [2] | Substance
1 | binds | binds | hybrid-BP1-Strep (IGFBP3 with its CLD replaced by the CLD of human IGFBP1) (from UniProt P17936 28-117; P08833 108-172; P17936 210-291)
2 | binds | binds | hybrid-BP4-Strep (IGFBP3 with its CLD replaced by the CLD of human IGFBP4) (from UniProt P17936 28-117; P22692 104-170; P17936 210-291)
3 | binds | binds | hybrid-BP6-Strep (IGFBP3 with its CLD replaced by the CLD of human IGFBP6) (from UniProt P17936 28-117; P24592 108-159; P17936 210-291)
4 | binds | binds | hybrid-BP2-Strep (IGFBP3 with its CLD replaced by the CLD of human IGFBP2) (from UniProt P17936 28-117; P18065 135-223; P17936 210-291)
